Reference: PMC13217735

Chains of the proteins cited; added tags and fusions are not shown.
UniProt O15169: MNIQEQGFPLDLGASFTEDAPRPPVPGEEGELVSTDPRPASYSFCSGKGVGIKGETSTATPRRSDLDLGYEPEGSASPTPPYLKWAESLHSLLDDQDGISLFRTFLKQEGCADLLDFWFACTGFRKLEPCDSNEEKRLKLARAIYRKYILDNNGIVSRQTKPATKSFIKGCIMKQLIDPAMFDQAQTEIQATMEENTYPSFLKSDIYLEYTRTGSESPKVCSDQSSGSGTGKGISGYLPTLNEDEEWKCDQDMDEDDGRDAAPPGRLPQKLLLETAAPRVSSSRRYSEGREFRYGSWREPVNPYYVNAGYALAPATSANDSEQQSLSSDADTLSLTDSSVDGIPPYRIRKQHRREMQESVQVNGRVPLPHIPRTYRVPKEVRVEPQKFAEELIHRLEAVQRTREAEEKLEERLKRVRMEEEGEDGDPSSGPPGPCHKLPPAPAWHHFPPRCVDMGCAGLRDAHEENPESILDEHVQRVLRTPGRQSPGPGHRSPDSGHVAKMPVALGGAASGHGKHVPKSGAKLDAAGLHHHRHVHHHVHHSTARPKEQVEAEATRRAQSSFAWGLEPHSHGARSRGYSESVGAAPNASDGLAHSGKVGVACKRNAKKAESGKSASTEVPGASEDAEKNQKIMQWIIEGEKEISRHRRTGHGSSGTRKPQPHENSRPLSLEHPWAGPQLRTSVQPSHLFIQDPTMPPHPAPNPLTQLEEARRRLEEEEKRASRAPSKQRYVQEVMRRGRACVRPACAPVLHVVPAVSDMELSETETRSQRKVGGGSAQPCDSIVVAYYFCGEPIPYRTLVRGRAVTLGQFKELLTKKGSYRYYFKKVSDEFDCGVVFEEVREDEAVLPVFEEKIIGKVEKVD
UniProt P35222: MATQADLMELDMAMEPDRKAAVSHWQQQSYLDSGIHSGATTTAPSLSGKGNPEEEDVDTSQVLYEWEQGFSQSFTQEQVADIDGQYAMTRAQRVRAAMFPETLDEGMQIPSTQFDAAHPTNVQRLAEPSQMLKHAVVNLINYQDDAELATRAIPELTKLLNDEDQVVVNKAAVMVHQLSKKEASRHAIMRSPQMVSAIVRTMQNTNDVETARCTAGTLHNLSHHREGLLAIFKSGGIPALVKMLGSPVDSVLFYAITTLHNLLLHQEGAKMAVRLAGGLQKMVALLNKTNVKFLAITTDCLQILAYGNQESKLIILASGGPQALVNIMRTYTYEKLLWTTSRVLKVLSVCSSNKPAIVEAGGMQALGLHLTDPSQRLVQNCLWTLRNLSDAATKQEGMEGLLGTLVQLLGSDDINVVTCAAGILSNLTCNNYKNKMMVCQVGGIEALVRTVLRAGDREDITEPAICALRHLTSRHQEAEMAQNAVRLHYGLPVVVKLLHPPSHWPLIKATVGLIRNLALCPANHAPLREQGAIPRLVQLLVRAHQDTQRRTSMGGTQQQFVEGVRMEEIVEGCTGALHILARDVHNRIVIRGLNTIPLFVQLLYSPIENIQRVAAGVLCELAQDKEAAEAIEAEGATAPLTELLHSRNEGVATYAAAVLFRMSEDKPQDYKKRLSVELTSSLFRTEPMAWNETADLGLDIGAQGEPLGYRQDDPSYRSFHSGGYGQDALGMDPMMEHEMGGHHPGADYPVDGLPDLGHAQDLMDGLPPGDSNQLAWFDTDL

Molecular target: AXIN1 (human (endogenous in HCT116)) (UniProt O15169)
Experiment: affinity purification with mass spectrometry; HCT116 lysate (20 mM Tris-HCl pH 7.5, 130 mM NaCl, 10% glycerol, 2 mM EDTA, 1% Triton X-100); endogenous AXIN1 or GSK3B precipitated overnight at 4 °C with antibody-conjugated Protein G beads, isotype IgG as control; on-bead trypsin digest, DIA mass spectrometry; cells treated with 100 nM trametinib 4 h, 10 µM CHIR99021 30 min or DMSO

binding: binds
Substance: beta-catenin (from UniProt P35222 1-781)

Results are given in words; binding and its absence hold for the method and conditions named. Binding seen in cells or lysates may run through a third protein. These calls come from enrichment with a bait or labelling near it, and not all partners need be listed.
